Results as given in article PMC12454742.
These are yes or no findings as the source states them, for the method shown. For some assays here: Binding seen in cells or lysates may run through a third protein. For some assays here: Binding can be weak; no strength is given. Where a sequence is shown, tags or fusion partners need not be part of it. Values belong to the molecule of their own block, whether it stands above or below them.

Sequences of proteins named here, by UniProt entry; tags and fusion partners are left off. A change or cut given only in a name is not applied to a line headed by its entry.
UniProt Q94AY3: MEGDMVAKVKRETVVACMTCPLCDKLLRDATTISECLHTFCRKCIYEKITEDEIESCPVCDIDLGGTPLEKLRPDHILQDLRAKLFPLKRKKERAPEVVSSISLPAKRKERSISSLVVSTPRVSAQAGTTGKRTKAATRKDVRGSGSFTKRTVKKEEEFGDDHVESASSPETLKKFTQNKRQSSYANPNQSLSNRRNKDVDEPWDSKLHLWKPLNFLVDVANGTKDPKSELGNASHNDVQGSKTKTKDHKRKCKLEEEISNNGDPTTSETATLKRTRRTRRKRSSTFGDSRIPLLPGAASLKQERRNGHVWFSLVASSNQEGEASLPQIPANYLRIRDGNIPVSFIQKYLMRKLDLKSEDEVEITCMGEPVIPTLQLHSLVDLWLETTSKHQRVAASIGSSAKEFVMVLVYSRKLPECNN
UniProt Q9LS86: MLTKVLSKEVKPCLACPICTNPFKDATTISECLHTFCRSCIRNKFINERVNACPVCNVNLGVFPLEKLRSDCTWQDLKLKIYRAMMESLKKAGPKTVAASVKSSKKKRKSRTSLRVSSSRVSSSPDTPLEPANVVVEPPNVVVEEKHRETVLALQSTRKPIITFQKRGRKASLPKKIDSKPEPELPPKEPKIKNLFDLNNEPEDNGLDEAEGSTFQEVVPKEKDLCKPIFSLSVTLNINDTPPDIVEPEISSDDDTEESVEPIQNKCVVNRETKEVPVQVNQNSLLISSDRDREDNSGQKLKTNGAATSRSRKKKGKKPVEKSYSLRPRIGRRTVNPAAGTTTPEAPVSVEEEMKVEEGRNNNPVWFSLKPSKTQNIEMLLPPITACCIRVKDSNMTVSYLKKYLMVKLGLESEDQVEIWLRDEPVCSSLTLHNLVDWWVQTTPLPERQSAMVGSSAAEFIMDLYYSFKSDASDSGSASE
UniProt Q9M9Y4: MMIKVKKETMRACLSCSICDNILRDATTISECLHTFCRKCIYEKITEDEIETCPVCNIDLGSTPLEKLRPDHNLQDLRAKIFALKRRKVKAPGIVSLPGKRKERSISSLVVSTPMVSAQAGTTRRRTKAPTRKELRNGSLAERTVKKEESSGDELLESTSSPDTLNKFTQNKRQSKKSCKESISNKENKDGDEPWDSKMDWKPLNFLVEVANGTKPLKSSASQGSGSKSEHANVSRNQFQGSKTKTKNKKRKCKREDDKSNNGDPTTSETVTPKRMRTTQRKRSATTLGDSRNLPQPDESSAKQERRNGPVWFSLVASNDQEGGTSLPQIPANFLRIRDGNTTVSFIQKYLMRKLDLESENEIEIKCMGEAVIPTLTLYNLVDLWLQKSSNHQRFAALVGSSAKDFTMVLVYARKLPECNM

Key:
[1] = biological target: T1, GFP-CAP-H (Arabidopsis thaliana) (UniProt Q564K3); assay: co-IP; lysate of Nicotiana benthamiana leaves co-expressing both proteins; GFP-Trap beads, 2 h at 4 °C, EWB buffer (50 mM Tris-HCl pH 7.5, 150 mM NaCl, 0.1% Triton X-100); blots with anti-GFP and anti-MYC
T1 sequence: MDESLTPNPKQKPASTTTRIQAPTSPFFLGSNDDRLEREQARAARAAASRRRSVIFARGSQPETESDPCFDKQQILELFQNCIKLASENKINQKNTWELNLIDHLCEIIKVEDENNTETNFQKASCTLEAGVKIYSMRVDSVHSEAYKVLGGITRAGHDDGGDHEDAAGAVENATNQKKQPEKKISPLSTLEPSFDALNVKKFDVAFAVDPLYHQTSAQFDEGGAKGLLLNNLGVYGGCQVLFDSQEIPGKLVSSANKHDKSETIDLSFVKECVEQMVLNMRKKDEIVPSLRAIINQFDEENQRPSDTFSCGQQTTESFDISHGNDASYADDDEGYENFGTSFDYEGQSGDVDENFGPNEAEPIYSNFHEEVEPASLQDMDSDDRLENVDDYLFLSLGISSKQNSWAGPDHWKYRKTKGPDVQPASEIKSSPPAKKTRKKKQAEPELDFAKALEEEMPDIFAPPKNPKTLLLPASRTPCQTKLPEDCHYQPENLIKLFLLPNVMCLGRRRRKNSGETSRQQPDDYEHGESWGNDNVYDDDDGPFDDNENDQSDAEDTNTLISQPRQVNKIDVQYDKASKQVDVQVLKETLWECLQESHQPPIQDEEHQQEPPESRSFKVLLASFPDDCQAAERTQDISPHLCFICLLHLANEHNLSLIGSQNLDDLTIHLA

[2] = biological target: T2, GFP-CAP-H2 (Arabidopsis thaliana) (UniProt Q9LUR0); assay: as above
T2 sequence: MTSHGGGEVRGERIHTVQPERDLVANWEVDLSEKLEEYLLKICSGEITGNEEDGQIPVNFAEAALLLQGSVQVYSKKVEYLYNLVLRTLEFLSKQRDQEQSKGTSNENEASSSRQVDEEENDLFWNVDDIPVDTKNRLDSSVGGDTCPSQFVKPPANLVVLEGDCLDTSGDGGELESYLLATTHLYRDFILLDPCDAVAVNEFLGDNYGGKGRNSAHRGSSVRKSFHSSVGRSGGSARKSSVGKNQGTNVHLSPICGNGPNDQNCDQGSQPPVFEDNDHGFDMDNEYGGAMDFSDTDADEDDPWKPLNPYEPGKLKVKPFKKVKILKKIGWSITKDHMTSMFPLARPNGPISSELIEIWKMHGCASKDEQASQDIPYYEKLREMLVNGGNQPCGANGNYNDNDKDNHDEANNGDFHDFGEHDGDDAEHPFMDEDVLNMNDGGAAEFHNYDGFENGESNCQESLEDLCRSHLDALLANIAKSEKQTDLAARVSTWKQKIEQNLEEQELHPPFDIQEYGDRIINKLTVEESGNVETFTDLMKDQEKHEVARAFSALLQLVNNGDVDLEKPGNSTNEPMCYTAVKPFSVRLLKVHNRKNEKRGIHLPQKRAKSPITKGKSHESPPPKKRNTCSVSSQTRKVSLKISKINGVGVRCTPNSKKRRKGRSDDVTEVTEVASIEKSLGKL

[3] = biological target: nYFP-BMI1A (Arabidopsis thaliana) (UniProt Q94AY3); assay: split reporter; BiFC with nYFP and cYFP fusions, agroinfiltrated Nicotiana benthamiana leaves, imaged after 2-3 days by confocal microscopy
[4] = biological target: BMI1C, yeast two-hybrid fusion (Arabidopsis thaliana) (UniProt Q9LS86); assay: two-hybrid; bait and prey plasmids co-transformed into yeast strain Y2H Gold; interaction checked on SD medium minus Trp, Leu and His; 3-5 days at 28 °C
[5] = biological target: BMI1B, yeast two-hybrid fusion (Arabidopsis thaliana) (UniProt Q9M9Y4); assay: as above

- binding [1]: binds
- binding [2]: binds
Molecule: BMI1A-MYC (from UniProt Q94AY3)

- binding [3]: binds
B1: cYFP-CAP-H (protein, UniProt Q564K3 1-671)
chain: T1 sequence

- binding [4]: no binding
- binding [5]: no binding
B2: CAP-H (Chromosome-Associated Protein H, condensin I kleisin subunit), yeast two-hybrid fusion (protein, UniProt Q564K3 1-671)
chain: T1 sequence

- binding [3]: binds
B3: cYFP-CAP-H2 (protein, UniProt Q9LUR0 1-683)
chain: T2 sequence

- binding [4]: no binding
- binding [5]: no binding
B4: CAP-H2 (Chromosome-Associated Protein H2, condensin II kleisin subunit), yeast two-hybrid fusion (protein, UniProt Q9LUR0 1-683)
chain: T2 sequence
